Molecules are shown by their SMILES.

The test system of experiment [1] is HEK293T-eGFP cells. In words: MTT cytotoxicity assay, 72 hours. The format is cell-based. The note with it: 3 days of incubation. Here is the method: Cells were cultured for 16–24 hours under standard culturing conditions (5% CO2, 37 °C). […] All dose ranges were added in duplicate, followed by 72 hours of incubation. Cell viability was determined using a tetrazolium based metabolic activity assay. Briefly, 5 µL of 3-(4.5-dimethylthiazol-2-yl)-2,5-diphenyltetrazolium bromide (MTT) solution (5 mg/mL MTT in sterile PBS) was added per well, and the microplates were incubated for 4 hours at 37°C and 5% CO2 in a cell culture incubator. Next, 40 µL of 10% SDS/0.01 M HCl was added per well, and the microplates were incubated for 24–72 hours at 37°C and 5% CO2 in a cell culture incubator. Subsequently the absorbance at 570 nm and background absorbance at 720 nm were measured using the Spectramax i3x (Molecular Devices, San Jose, USA). Subsequently, the absorbance values at 720 nm were subtracted from the absorbance values at 570 nm, and the corresponding values were used to plot dose-response curves.
The data was normalized to the DMSO-treated cells (defined as 100% viability) and the empty controls (defined as 0% viability).

For experiment [2], the system named is eGFP locus in HEK293T-eGFP cells (HDR vs NHEJ). The experiment in a line: CRISPR gene-editing outcome (eGFP to BFP conversion, flow cytometry) with CRISPR-Cas9 LNP. The format is cell-based. The note with it: up to three dosages based on IC50, single measurements. Here is the method: Compounds were assessed in three dosages to assess the effects on gene-editing efficacy. […] Cells were incubated with these compounds for 24 hours prior to LNP addition. LNP were added to all wells at a final concentration of 20 nM SpCas9 to achieve robust genome editing. After 24 hours of co-incubation, medium was refreshed and cells were transferred to a 48 well plate for further culturing. Six days after adding compounds, cells were processed for flow cytometric analysis of the gene knock-out and gene-correction efficiencies. Briefly, a ssDNA template was used carrying two nucleotide mutations to convert the eGFP sequence to that of a blue fluorescent protein (BFP), as well as mutating the PAM sequence to ensure robust HDR. The sgRNA spacer sequence was 5’-[…]-3’, and the HDR template sequence was 5’-[…]-3’.
Flow cytometry using the BD FACS Canto II (Becton Dickinson) was used to determine cells undergoing NHEJ (eGFP and BFP negative population) and HDR (eGFP negative, BFP positive). […]
The percentage of HDR relative to total gene editing in a given cell population (hereafter named Relative HDR (% of edited cells) was calculated by dividing the absolute HDR population by the sum of gene-edited cells found in the BFP+ and eGFP- gates. Absolute HDR (% of all cells) and Absolute NHEJ (% of all cells) were analyzed where appropriate. The gating strategy is given in S1 Fig in S1 File.
On the technique in general: A flow cytometer gives signals particle by particle.

Compound `O=C(CCCCCCC(=O)Nc1ccccc1)NO` [Vorinostat] displayed an IC50 in experiment [1] of 3.34 µM. Besides, the “effect on relative HDR in the compound screen” value in experiment [2] is listed as “did not show the same effect”.

The term IC50 denotes the concentration that inhibits the measured activity by half. Higher therefore signals weaker potency in that assay.
